The record followed here is publication PMC12717121, “ABA-independent PP2C-binding in PYLs traces to bacterial origins and persists in land plants” (Nature Communications, 2025).

The chains behind the UniProt entries cited, without tags or fusion partners. Where a name states a change or a piece, a line headed by the entry shows the natural chain unless it says otherwise.
UniProt P49597: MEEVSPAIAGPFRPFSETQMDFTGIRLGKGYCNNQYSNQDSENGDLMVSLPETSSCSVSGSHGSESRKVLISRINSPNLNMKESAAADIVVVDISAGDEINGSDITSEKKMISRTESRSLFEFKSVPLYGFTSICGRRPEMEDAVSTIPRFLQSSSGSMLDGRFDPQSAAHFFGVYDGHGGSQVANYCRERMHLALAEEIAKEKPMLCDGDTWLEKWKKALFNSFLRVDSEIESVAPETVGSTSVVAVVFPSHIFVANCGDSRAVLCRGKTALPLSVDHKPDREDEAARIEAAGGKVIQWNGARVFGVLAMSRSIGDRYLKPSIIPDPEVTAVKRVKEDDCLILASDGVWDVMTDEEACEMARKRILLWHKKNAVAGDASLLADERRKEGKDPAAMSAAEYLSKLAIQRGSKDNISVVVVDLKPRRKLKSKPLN
UniProt A0A2N7VMU2: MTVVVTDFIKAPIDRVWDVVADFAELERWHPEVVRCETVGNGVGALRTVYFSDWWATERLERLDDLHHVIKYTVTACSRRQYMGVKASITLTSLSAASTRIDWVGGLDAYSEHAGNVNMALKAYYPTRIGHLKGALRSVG

These are yes or no findings as the source states them, for the method shown. For some assays here: Binding seen in cells or lysates may run through a third protein. For some assays here: Binding can be weak; no strength is given. For some assays here: Sequences can lack the tags named with a protein.

The target in test [1] is cLUC-AtABI1 (Arabidopsis) (UniProt P49597). The test is described as follows: split reporter; firefly luciferase complementation imaging (LCI); PYL-nLUC and cLUC-PP2C transiently co-expressed in Nicotiana benthamiana leaves by Agrobacterium infiltration; D-luciferin, CCD imaging.
For test [2], the target named is T1, cLUC-AtHAB2 (Arabidopsis) (UniProt Q9LNP9).
T1 sequence: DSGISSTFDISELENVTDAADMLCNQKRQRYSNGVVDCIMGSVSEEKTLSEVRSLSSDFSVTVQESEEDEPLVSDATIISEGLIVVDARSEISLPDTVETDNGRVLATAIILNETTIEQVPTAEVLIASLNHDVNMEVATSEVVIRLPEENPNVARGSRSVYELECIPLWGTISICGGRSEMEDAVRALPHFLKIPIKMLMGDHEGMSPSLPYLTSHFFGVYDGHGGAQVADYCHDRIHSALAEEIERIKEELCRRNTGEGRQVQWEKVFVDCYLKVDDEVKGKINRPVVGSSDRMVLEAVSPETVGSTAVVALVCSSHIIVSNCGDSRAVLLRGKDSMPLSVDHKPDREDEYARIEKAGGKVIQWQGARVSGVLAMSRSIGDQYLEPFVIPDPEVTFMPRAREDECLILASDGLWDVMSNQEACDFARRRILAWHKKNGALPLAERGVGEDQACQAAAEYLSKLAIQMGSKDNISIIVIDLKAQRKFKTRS
Described as above.

For another test, the target named is T2, cLUC-HAI1 (Arabidopsis) (UniProt Q9FIF5).
T2 sequence: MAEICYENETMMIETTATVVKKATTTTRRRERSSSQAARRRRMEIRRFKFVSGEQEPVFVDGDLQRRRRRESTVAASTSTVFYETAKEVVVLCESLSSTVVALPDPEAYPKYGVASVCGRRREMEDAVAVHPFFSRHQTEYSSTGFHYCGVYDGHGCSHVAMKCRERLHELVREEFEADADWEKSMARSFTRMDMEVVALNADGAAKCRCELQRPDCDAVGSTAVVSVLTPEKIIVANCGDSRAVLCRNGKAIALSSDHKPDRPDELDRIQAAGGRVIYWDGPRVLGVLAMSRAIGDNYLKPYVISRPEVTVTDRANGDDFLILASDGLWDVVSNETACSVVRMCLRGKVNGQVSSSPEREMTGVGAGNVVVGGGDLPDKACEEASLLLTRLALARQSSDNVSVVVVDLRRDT
Described as above.

The target of another test is T3, cLUC-PP2CA (Arabidopsis) (UniProt P49598).
T3 sequence: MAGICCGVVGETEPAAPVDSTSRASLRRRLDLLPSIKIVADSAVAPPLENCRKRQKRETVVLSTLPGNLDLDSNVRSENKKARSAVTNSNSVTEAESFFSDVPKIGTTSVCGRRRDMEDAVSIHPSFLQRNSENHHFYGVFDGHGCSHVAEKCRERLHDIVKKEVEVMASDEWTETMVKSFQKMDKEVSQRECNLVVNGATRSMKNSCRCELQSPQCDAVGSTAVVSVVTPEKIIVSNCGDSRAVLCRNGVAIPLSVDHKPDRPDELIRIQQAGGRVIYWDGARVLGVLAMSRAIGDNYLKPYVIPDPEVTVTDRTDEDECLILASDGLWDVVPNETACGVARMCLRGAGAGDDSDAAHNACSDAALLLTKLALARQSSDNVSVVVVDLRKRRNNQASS
The test is described as above.

Test [3] addresses T4, HAB2 (Arabidopsis clade A PP2C), two-hybrid fusion (Arabidopsis) (UniProt Q9LNP9).
T4 sequence: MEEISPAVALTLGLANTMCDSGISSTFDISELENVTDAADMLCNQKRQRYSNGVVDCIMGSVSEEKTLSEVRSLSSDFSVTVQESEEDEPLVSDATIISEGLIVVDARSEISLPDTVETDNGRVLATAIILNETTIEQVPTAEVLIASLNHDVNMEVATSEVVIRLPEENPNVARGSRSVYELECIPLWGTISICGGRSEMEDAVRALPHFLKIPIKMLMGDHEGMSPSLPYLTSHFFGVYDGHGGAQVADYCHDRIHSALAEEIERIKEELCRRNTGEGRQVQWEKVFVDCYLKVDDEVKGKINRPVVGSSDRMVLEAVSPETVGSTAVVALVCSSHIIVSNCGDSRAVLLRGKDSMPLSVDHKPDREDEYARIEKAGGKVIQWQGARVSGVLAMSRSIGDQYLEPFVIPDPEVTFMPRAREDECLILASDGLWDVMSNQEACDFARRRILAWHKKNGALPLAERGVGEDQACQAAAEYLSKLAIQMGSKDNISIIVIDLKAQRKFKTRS
The test is described as follows: two-hybrid; Matchmaker GAL4 Two-Hybrid System, yeast strain Y2HGold co-transformed with paired constructs; growth on selective SD/-Leu-Trp-His (or -LWHA) media without or with 10 µM ABA.

The target in test [4] is T5, PP2CA (Arabidopsis clade A PP2C), two-hybrid fusion (Arabidopsis) (UniProt P49598).
T5 sequence: T3 sequence
Described as above.

As for PrPYL-nLUC (from UniProt A0A2N7VMU2), the binding entry in test [1] and in test [2] was “binds weakly” throughout.

As for “MeenPYL3-nLUC (Mesotaenium endlicherianum)”, the binding entry in the test with cLUC-HAI1 (Arabidopsis) and with cLUC-PP2CA (Arabidopsis) was “binds” throughout.

In the case of Sphingomonas PYL, the binding result in test [3] and in test [4] was “no binding” in each case.

Take Frankia PYL: the binding result in test [3] and in test [4] was “no binding” throughout.
